ChEMBL document CHEMBL4699655, “Optimization of the In Vivo Potency of Pyrazolopyrimidine MALT1 Protease Inhibitors by Reducing Metabolism and Increasing Potency in Whole Blood” (J Med Chem, 2020)
pIC50: −log10 of the molar value. In brackets after ≈: the same amount, converted by molar mass.

The chains behind the UniProt entries cited, without tags or fusion partners.
UniProt P08684, whole entry: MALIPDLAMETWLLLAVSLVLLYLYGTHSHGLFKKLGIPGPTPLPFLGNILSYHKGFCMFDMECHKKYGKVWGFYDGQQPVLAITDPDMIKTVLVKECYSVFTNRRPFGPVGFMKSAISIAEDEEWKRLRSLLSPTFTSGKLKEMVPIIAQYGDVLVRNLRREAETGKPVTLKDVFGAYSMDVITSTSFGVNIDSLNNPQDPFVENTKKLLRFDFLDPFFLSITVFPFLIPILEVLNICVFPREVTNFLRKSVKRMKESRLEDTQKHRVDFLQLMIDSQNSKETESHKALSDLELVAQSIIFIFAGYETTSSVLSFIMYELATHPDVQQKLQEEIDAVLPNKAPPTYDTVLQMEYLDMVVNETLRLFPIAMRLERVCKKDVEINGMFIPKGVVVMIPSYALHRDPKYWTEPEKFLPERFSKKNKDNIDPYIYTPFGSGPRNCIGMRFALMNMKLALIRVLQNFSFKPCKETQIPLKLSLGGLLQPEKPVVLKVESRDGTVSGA
UniProt P11712, whole entry: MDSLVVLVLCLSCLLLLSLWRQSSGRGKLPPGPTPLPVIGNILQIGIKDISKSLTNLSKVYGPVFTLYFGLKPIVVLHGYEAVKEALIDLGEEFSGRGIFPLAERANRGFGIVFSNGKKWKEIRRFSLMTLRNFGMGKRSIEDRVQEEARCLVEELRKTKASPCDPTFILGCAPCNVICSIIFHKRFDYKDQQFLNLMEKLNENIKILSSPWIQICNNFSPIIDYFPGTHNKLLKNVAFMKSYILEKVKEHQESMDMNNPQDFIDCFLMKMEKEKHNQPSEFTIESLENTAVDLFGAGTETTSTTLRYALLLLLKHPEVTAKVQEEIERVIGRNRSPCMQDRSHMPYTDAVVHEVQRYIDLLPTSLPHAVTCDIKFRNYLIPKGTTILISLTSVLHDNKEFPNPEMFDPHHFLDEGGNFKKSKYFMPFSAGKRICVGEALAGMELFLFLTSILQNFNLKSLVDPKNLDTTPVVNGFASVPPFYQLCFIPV
UniProt P10635, whole entry: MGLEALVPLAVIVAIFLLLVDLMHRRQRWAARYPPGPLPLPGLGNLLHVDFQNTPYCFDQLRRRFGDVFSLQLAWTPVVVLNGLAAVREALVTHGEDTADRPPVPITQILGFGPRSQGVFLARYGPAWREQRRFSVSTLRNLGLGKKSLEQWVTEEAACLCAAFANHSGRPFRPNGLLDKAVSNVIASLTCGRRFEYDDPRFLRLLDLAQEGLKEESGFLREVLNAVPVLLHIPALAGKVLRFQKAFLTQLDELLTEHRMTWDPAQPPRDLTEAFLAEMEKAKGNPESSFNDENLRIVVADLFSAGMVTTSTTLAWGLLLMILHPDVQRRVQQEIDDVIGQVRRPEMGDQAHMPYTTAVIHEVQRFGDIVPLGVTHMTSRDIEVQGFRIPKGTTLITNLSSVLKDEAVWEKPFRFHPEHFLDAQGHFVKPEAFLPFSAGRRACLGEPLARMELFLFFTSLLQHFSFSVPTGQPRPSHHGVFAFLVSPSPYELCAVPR

Experiments:
[1] = Lipophilicity, logP of the compound; settings: octanol/water
Cytochrome P450 3A4 = Cytochrome P450 3A4 (Homo sapiens, UniProt P08684); assay: Inhibition of CYP3A4 (unknown origin)
Cytochrome P450 2C9 = Cytochrome P450 2C9 (Homo sapiens, UniProt P11712); assay: Inhibition of CYP2C9 (unknown origin)
Cytochrome P450 2D6 = Cytochrome P450 2D6 (Homo sapiens, UniProt P10635); assay: Inhibition of CYP2D6 (unknown origin)
[2] = Thermodynamic solubility of the compound

CO[C@@H](C)c1c(NC(=O)Nc2ccnc(C(F)(F)F)c2)cnc2cc(Cl)nn12
logP [1]: 3.6 | pIC50 (Cytochrome P450 3A4): < 4.70 | pIC50 (Cytochrome P450 2C9): < 4.70 | pIC50 (Cytochrome P450 2D6): < 4.70 | solubility thermodynamic [2]: 4 µg/mL (≈ 9.64 µM)
